# PubChem BioAssay AID1259424, University of Nebraska Medical Center – 2018
# Test: 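Seek colon cancer survival genes behaving like KSR1, using a six-gene signature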 (primary screen)
# Cells: human HCT116 colon cancer cells
# Reagent: siRNA pool against human genes, 50 nM
# Read-out: 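Log2 levels of six mRNAs (branched-DNA multiplex), adjusted by two reference genes and the non-targeting median, then scored against the average KSR1 knockdown pattern as Pearson r and euclidean distance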
# Scale: mean correlation with KSR1 profile and KSR1 correlation: higher = expression change more like KSR1 knockdown; mean distance from KSR1 profile: higher = expression change less like KSR1 knockdown
# Here is a random part of about 14,000 deposited reagents. 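Higher correlation or smaller distance means closer resemblance to KSR1 loss; control wells, including KSR1 knockdowns, recur on many plates.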 No sequences are given here. Not stated in the record: the time to read-out.
gene,PubChem SID,mean correlation with KSR1 profile,mean distance from KSR1 profile,"KSR1 correlation, replicate 1","KSR1 correlation, replicate 2","KSR1 correlation, replicate 3"
PRPSAP2 (GeneID 5636),SID363993925,0.159,4.07,0.356,0.245,-0.148
CERS2 (GeneID 29956),SID363998490,-0.33,2.17,-0.396,-0.533,-0.524
FGF20 (GeneID 26281),SID364001456,0.00365,2.4,0.158,-0.0538,-0.0699
CCND3 (GeneID 896),SID363992979,-0.468,3.03,-0.405,-0.62,-0.544
CRYBB2 (GeneID 1415),SID363991819,-0.23,2.38,-0.101,-0.209,-0.306
MED18 (GeneID 54797),SID364000409,0.588,1.73,0.701,0.385,0.57
EBP (GeneID 10682),SID363997370,0.115,2.68,0.11,0.206,-0.153
NCAPH (GeneID 23397),SID363999427,-0.64,1.71,-0.525,-0.432,-0.446
GATB (GeneID 5188),SID363995535,-0.6,1.84,-0.495,-0.466,-0.795
ANLN (GeneID 54443),SID364001179,-0.0418,2.26,-0.0757,-0.0459,-0.0724
ZNF37A (GeneID 7587),SID364005090,0.241,3.93,0.47,0.304,0.115
RNF39 (GeneID 80352),SID364003336,0.588,1.67,0.503,0.464,0.634
LTBP1 (GeneID 4052),SID363991944,-0.366,2.32,-0.769,-0.0881,-0.25
PTPN11 (GeneID 5781),SID363993990,-0.363,0.996,-0.296,-0.778,0.391
ACOX2 (GeneID 8309),SID363994596,-0.182,4.82,0.0708,-0.292,-0.351
TEX11 (GeneID 56159),SID364003566,-0.0285,5.42,0.268,-0.254,-0.11
CEP170 (GeneID 9859),SID363999123,0.329,1.1,0.558,0.228,-0.138
DTNBP1 (GeneID 84062),SID364003779,-0.543,2.16,-0.539,-0.688,-0.668
TESPA1 (GeneID 9840),SID364005512,0.118,1.5,0.247,0.174,0.0468
IL3 (GeneID 3562),SID363991906,-0.521,2.03,-0.702,-0.466,-0.281
TUBA4B (GeneID 80086),SID364003209,0.321,1.96,0.344,0.18,0.0801
ASXL3 (GeneID 80816),SID364005352,0.15,2.79,0.0994,0.0536,0.172
PCYT1A (GeneID 5130),SID363995956,-0.656,2.07,-0.531,-0.443,-0.783
LIAS (GeneID 11019),SID363997623,-0.554,2.54,-0.339,-0.629,-0.535
PHKA2 (GeneID 5256),SID363991624,0.226,2.25,0.404,0.201,-0.068
SPECC1L (GeneID 23384),SID364005101,0.176,1.8,0.224,0.142,0.0986
TM4SF1 (GeneID 4071),SID363998659,-0.28,1.56,-0.189,-0.177,-0.598
TFAM (GeneID 7019),SID363994334,-0.0411,2.15,0.171,0.00531,-0.122
ABHD17A (GeneID 81926),SID364003552,0.081,1.85,-0.0494,0.217,-0.274
RCAN3 (GeneID 11123),SID363998519,0.0834,1.37,0.215,-0.123,0.178
TGFB1I1 (GeneID 7041),SID363999727,0.27,2.38,0.421,0.33,-0.0174
CCDC40 (GeneID 55036),SID364005428,-0.295,1.46,-0.163,-0.268,-0.323
KLRC3 (GeneID 3823),SID363993460,0.561,1.15,0.0808,0.543,0.427
ABCC13 (GeneID 150000),SID364004573,-0.674,2.26,-0.699,-0.462,-0.705
EVA1A (GeneID 84141),SID364003820,0.885,2.24,0.767,0.934,0.96
CBX3 (GeneID 11335),SID363997965,-0.0564,1.72,0.207,-0.0876,0.00728
GABARAPL2 (GeneID 11345),SID363997974,-0.518,2.77,-0.556,-0.621,-0.462
JARID2 (GeneID 3720),SID363995914,0.237,2.35,0.157,0.278,0.0335
CNN3 (GeneID 1266),SID363993054,0.15,1.38,0.0542,0.367,-0.00979
RINT1 (GeneID 60561),SID364002222,-0.367,6.62,-0.171,-0.0364,-0.259
ZNRF1 (GeneID 84937),SID364003862,0.616,2,0.692,0.519,0.241
DUT (GeneID 1854),SID363993160,-0.299,1.97,-0.384,-0.407,-0.161
RNASE6 (GeneID 6039),SID363996510,-0.339,1.39,-0.162,-0.524,-0.127
OGDHL (GeneID 55753),SID364000909,-0.757,2.79,-0.843,-0.845,-0.682
STAT4 (GeneID 6775),SID363994290,0.643,1.31,0.512,0.604,0.643
CHST3 (GeneID 9469),SID363995268,-0.204,2.19,-0.343,-0.12,-0.031
LYPLA2 (GeneID 11313),SID363997949,-0.122,2.44,0.0707,-0.319,-0.219
LCORL (GeneID 254251),SID364004782,0.144,1.31,0.238,-0.0525,-0.181
PNMA2 (GeneID 10687),SID364005586,0.336,1.42,0.405,0.248,0.346
ZNF271P (GeneID 10778),SID363997417,-0.284,1.84,0.0632,-0.28,-0.435
SULT1A3 (GeneID 6818),SID363994303,-0.0659,1.61,0.0484,-0.257,-0.0834
STARD3 (GeneID 10948),SID363997570,0.0151,1.47,0.299,-0.09,-0.133
LENG1 (GeneID 79165),SID364002789,-0.27,2.92,-0.17,-0.478,-0.208
ARB2A (GeneID 83989),SID364003761,0.958,0.486,0.966,0.906,0.978
S100A3 (GeneID 6274),SID363994111,0.545,1.05,0.0306,0.421,0.436
ABLIM2 (GeneID 84448),SID364003980,0.173,1.66,0.39,0.301,0.0626
PPP3CC (GeneID 5533),SID363996500,-0.314,3.08,-0.388,-0.448,-0.171
ESRRB (GeneID 2103),SID363995434,0.568,1.67,0.608,0.613,0.335
THSD1 (GeneID 55901),SID364001173,-0.23,2.67,-0.178,-0.251,-0.143
CLPX (GeneID 10845),SID363997446,0.389,3.24,0.405,0.35,0.179
FST (GeneID 10468),SID363998508,-0.464,1.13,-0.682,-0.424,0.248
TCF19 (GeneID 6941),SID363997825,0.825,1.53,0.842,0.873,0.728
POLR3E (GeneID 55718),SID364000796,-0.0499,3.9,0.128,-0.0394,-0.152
